Assay results reported in patent US9950048B2, “Immunogenic epitopes for immunotherapy” (immatics biotechnologies GmbH, priority 2007, dated 2018).

Tested on: colorectal tumour samples
Assay: Re-detection of identified TUMAPs by ESI-LCMS in CRC tumour samples
Set-up: species or system human
Conditions: colon and rectum cancer samples and metastases

Sequence | Detected in % of analyzed samples [%]
ALSNLEVTL [Peptide C20-001] | 100
ILAPVILYI [NOX-001] | 67
KIFDEILVNA [TOP-001] | 87
ALFVRLLALA [TGFBI-001] | 100
TPPIDAHTRNLLRNH (listed as Homo sapiens) [TGFBI-004] | 33
KLMDLDVEQL [PCN-001] | 80

Ends that are not written are not given here.
